{"source": "PubChem BioAssay AID1259283 (Sanger Institute, 2017)", "screen": "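Kinases needed for HT115 growth and partners for drug synergy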 (primary screen)", "system": "HT115 colorectal cancer cells", "reagent": "siRNA pool against human genes", "treatment": "anchor drug given one day after siRNA: BYL719 at 1 µM, cetuximab at 5 µg/ml, trametinib at 10 nM, or DMSO vehicle alone", "measured": "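Viability normalised to non-targeting pool #2 wells and averaged over replicates, robust z-score against control wells, and a synergy score for each of three drugs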", "reading the numbers": "robust z-score, knock-down alone: higher = more viable cells after knock-down; viability, DMSO vs non-targeting control: higher = more viable cells", "active means": "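Essential gene: robust z-score less than -3 with no drug added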", "meaning of the calls": "active = essential (z below -3, no drug); inactive = no change without drug", "note": "The deposit covers 794 reagents; below is a random part of them. Of all reagents, 14 (1.8%) are marked active. 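Calls reflect only viability loss without drug; drug synergy does not enter the call.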 No viability above 1 is reported: the scale is capped. Further read-outs or replicates are left out here. Not stated in the record: the amount of reagent, the time to read-out."}
{"target": "TPD52L3 (GeneID 89882)", "robust z-score, knock-down alone": 0.789, "viability, DMSO vs non-targeting control (fraction of control)": 1, "activity call": "inactive"}
{"target": "BRWD1 (GeneID 54014)", "robust z-score, knock-down alone": -0.677, "viability, DMSO vs non-targeting control (fraction of control)": 0.864, "activity call": "inactive"}
{"target": "ATRX (GeneID 546)", "robust z-score, knock-down alone": 0.789, "viability, DMSO vs non-targeting control (fraction of control)": 1, "activity call": "inactive"}
{"target": "PTEN (GeneID 5728)", "robust z-score, knock-down alone": -0.52, "viability, DMSO vs non-targeting control (fraction of control)": 0.879, "activity call": "inactive"}
{"target": "CKS1B (GeneID 1163)", "robust z-score, knock-down alone": 0.238, "viability, DMSO vs non-targeting control (fraction of control)": 0.949, "activity call": "inactive"}
{"target": "PDK1 (GeneID 5163)", "robust z-score, knock-down alone": 0.00057, "viability, DMSO vs non-targeting control (fraction of control)": 0.927, "activity call": "inactive"}
{"target": "BTK (GeneID 695)", "robust z-score, knock-down alone": 0.425, "viability, DMSO vs non-targeting control (fraction of control)": 0.966, "activity call": "inactive"}

Next part (2 carried over from the part before).
{"target": "PDK1 (GeneID 5163)", "robust z-score, knock-down alone": 0.00057, "viability, DMSO vs non-targeting control (fraction of control)": 0.927, "activity call": "inactive"}
{"target": "BTK (GeneID 695)", "robust z-score, knock-down alone": 0.425, "viability, DMSO vs non-targeting control (fraction of control)": 0.966, "activity call": "inactive"}
{"target": "TGFBR3 (GeneID 7049)", "robust z-score, knock-down alone": 0.789, "viability, DMSO vs non-targeting control (fraction of control)": 1, "activity call": "inactive"}
{"target": "DTYMK (GeneID 1841)", "robust z-score, knock-down alone": 0.784, "viability, DMSO vs non-targeting control (fraction of control)": 1, "activity call": "inactive"}
{"target": "PIM2 (GeneID 11040)", "robust z-score, knock-down alone": 0.789, "viability, DMSO vs non-targeting control (fraction of control)": 1, "activity call": "inactive"}
{"target": "AKT2 (GeneID 208)", "robust z-score, knock-down alone": 0.584, "viability, DMSO vs non-targeting control (fraction of control)": 0.981, "activity call": "inactive"}
{"target": "AAK1 (GeneID 22848)", "robust z-score, knock-down alone": 0.451, "viability, DMSO vs non-targeting control (fraction of control)": 0.969, "activity call": "inactive"}
